We go through one molecule from PMC5520498.

Sequences of proteins named here, by UniProt entry; tags and fusion partners are left off.
UniProt Q13263: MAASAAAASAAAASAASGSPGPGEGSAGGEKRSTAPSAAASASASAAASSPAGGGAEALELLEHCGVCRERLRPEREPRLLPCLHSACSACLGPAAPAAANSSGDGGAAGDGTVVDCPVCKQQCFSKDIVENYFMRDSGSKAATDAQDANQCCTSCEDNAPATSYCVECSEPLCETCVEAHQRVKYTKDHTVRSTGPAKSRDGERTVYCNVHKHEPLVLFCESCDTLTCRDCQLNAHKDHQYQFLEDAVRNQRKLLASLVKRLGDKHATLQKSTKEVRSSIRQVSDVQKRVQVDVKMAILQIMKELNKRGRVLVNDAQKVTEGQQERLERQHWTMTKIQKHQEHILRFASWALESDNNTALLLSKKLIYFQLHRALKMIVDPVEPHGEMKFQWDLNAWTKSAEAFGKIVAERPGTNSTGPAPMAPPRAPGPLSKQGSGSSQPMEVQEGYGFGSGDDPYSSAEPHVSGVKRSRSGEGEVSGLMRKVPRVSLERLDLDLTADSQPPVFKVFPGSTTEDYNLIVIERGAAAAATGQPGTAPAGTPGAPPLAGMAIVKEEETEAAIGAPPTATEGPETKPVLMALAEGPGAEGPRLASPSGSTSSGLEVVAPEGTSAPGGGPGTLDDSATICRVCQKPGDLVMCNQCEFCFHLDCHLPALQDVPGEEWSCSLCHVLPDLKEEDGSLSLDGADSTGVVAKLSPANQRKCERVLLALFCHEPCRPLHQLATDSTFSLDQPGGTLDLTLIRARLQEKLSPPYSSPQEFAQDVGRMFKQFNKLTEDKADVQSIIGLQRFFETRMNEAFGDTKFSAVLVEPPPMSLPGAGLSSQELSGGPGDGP

In the experiment the target is TRIM28 (tripartite motif-containing protein 28), endogenous in HepG2 cells (human (endogenous in HepG2)) (UniProt Q13263). The experiment in a line: co-IP; co-immunoprecipitation of endogenous proteins from HepG2 cell lysate (reciprocal for FBP1 and TRIM28; anti-TRIM28 antibody for MAGE-A3 and MAGE-C2); RIPA lysate, Protein G agarose, western blot.

Results are given in words; binding and its absence hold for the method and conditions named. In cells and extracts the contact can be indirect. Some entries that bind do so weakly or less than the wild type.

B1: MAGE-C2, endogenous in HepG2 cells (protein, UniProt Q9UBF1 1-373)
chain: MPPVPGVPFRNVDNDSPTSVELEDWVDAQHPTDEEEEEASSASSTLYLVFSPSSFSTSSSLILGGPEEEEVPSGVIPNLTESIPSSPPQGPPQGPSQSPLSSCCSSFSWSSFSEESSSQKGEDTGTCQGLPDSESSFTYTLDEKVAELVEFLLLKYEAEEPVTEAEMLMIVIKYKDYFPVILKRAREFMELLFGLALIEVGPDHFCVFANTVGLTDEGSDDEGMPENSLLIIILSVIFIKGNCASEEVIWEVLNAVGVYAGREHFVYGEPRELLTKVWVQGHYLEYREVPHSSPPYYEFLWGPRAHSESIKKKVLEFLAKLNNTVPSSFPSWYKDALKDVEERVQATIDTADDATVMASESLSVMSSNVSFSE
As to B1, the binding result is listed as “binds”.
